Numbering of substitutions follows the chain as printed. No constants are given. Whether binding was seen depends on the method and setting. Tags and fused reporters may be left off the sequences shown.
T1: murine urokinase plasminogen activator receptor, recombinant extracellular domain protein (murine) (UniProt P35456)
T1 sequence (looked up): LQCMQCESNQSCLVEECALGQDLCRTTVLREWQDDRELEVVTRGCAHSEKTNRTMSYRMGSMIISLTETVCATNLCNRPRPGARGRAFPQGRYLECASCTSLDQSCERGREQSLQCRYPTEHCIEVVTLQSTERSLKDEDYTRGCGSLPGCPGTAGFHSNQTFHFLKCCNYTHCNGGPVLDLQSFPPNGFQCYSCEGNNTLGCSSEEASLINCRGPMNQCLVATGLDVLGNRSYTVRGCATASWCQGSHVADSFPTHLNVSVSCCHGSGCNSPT

B1: sdAb 15 (clone 5A4) with carboxy-terminal hexahistidine tag (VHH)
VHH: QVQLQESGGGWVQPGGSLRLSCAASGFTLDYYGIGWFRQAPGKEREGVSCISSSDGSTYYADSVKGRFTISRDNAKNTVYLQMNSLKPEDTAVYYCATRGASCYYTGSYSLGYDYWGQGTQVTVSS
notes: Lead compound; C-terminal 6His for purified-protein SPR; koff screen used bacterial extracts of the pMECS-GG construct; also called sdAb15.6His; Nr 15
B2: sdAb 17 (clone 5B7) with carboxy-terminal hexahistidine tag (VHH)
VHH: B1 VHH with W11L, A24V, F27S, D30E
notes: C-terminal 6His for purified-protein SPR; koff screen used bacterial extracts; also called Nr 17
B3: sdAb 18 (clone 5H2) with carboxy-terminal hexahistidine tag (VHH)
VHH: B1 VHH with W11L, V12A, A23T, L29S
notes: C-terminal 6His for purified-protein SPR; koff screen used bacterial extracts; also called Nr 18
B4: sdAb 16 (clone 5A5) with carboxy-terminal hexahistidine tag (VHH)
VHH: B1 VHH with W11L, A24I, T106S
notes: C-terminal 6His for purified-protein SPR; koff screen used bacterial extracts; also called Nr 16

These binders were tested against T1, murine urokinase plasminogen activator receptor, recombinant extracellular domain protein (murine) (assay: SPR, purified sdAbs on recombinant uPAR).

| binding | Binder |
| --- | --- |
| no binding | B1 |
| no binding | B2 |
| no binding | B3 |
| no binding | B4 |

Source: patent US20260139066A1 (VRIJE UNIVERSITEIT BRUSSEL, published 2026)
